Test results reported in patent publication US8555897B2, “Method of making a cigarette and method of reducing cytotoxicity in tobacco smoke” (priority 2005, dated 2013).

Assay: FT-IR MS gas phase composition
Details: Table 3

## CC(=O)O.N [NH4OAc, ammonium acetate]
FT-IR gas phase
  reduction in methanol/TPM: 24%
MS gas phase, FT-IR, change from control
  MEOH/TPM, change: −24%
Filler additive, change from control
  TPM, change: 9%
